## Results from one PubChem assay

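CellTiter-Glo luminescence measures how many UOK109 TFE3-RCC cells stay viable after two days of treatment.
Each compound was run as a concentration series, and the potency comes from that titration.
The number is the fitted AC50 for loss of viability; a lower value means a more potent compound.
All of these compounds are filed inconclusive. An active call needs an area-under-curve z-score below -0.8 in all three TFE3-fusion lines, and an inactive call needs flat class-4 curves in all three.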

Values are in µM.
Every entry below has the call inconclusive.
These entries are mostly ones the record files as inconclusive; other results of the assay are not listed here.
Potencies fitted to partial, single-point or poorly fitting curves are rough.
Some entries filed as inconclusive have a full curve.
Activity scores are not listed here.

- O=C(O)c1c(Cl)c(Cl)c(Cl)c(Cl)c1-c1c2cc(I)c(=O)c(I)c-2oc2c(I)c(O)c(I)cc12 [active = Z-AUC below -0.8 in all three lines] : Potency 5.258 µM (falling, partial curve, poor fit)
- CC(O)(C#Cc1ccc2c(c1)N(c1nc(N)ncc1Cl)CC2)c1nccs1 (centres unmarked) [active = Z-AUC below -0.8 in all three lines] : Potency 3.722 µM (falling, full curve)
- CN[C@@H]1Cc2cccc3[nH]c(=O)n(c23)C1 : Potency 0.5258 µM (falling, full curve, poor fit)
- C=CCON=C(C[C@H]1O[C@@H]2O[C@]3(C)CC[C@@H]4[C@H](C)CC[C@@H]([C@H]1C)[C@@]24OO3)[C@H]1O[C@@H]2O[C@]3(C)CC[C@H]4[C@H](C)CC[C@@H]([C@@H]1C)[C@@]24OO3 : Potency 0.4686 µM (falling, full curve)
- Cc1[nH]nc2ccc(-c3cncc(OC[C@@H](N)Cc4c[nH]c5ccccc45)c3)cc12 : Potency 0.935 µM (falling, full curve)
- CC1(CN2CCC(n3c(=O)[nH]c4ccccc43)CC2)OCc2ccccc2-n2cccc21 (centres unmarked) [active = Z-AUC below -0.8 in all three lines] : Potency 20.93 µM (falling, partial curve)
- Cc1cn2c(-c3cn[nH]c3)cnc2c(Nc2ccc(C(=O)N3CCNCC3)cc2F)n1 [active = Z-AUC below -0.8 in all three lines] : Potency 14.82 µM (falling, partial curve)
- COc1cc2ncnc(Nc3cccc(Br)c3)c2cc1OC [active = Z-AUC below -0.8 in all three lines] : Potency 0.07427 µM (falling, partial curve)
- CO[C@@H]1[C@@H](O)[C@H](O)[C@@H](n2c3c(Cl)cccc3c3c4c(c5c6cccc(Cl)c6[nH]c5c32)C(=O)NC4=O)O[C@@H]1CO [active = Z-AUC below -0.8 in all three lines] : Potency 1.663 µM (falling, full curve)
- O=C(CCCCCCC(=O)Nc1ccccc1)NO [active = Z-AUC below -0.8 in all three lines] : Potency 5.899 µM (falling, full curve)
- COc1cc2ncnc(Nc3ccc(F)c(Cl)c3)c2cc1OCCCN1CCOCC1 [active = Z-AUC below -0.8 in all three lines] : Potency 21.48 µM (falling, partial curve)
- NC1(c2ccc(-c3nc4ccn5c(=O)[nH]nc5c4cc3-c3ccccc3)cc2)CCC1 [active = Z-AUC below -0.8 in all three lines] : Potency 13.21 µM (falling, partial curve)
- COC[C@H]1OC(=O)c2coc3c2[C@@]1(C)C1=C(C3=O)[C@@H]2CC[C@H](O)[C@@]2(C)C[C@@H]1OC(C)=O : Potency 5.258 µM (falling, partial curve, poor fit)
- COc1cc(Nc2ncc(F)c(Nc3ccc4c(n3)N(COP(=O)(O)O)C(=O)C(C)(C)O4)n2)cc(OC)c1OC [active = Z-AUC below -0.8 in all three lines] : Potency 0.4176 µM (falling, partial curve)
- CN(C)Cc1cccc(N=C(c2ccccc2)c2c(O)[nH]c3cc(C(=O)N(C)C)ccc23)c1 [active = Z-AUC below -0.8 in all three lines] : Potency 5.258 µM (falling, full curve)
- O=C(c1cc(Cc2n[nH]c(=O)c3ccccc23)ccc1F)N1CCN(C(=O)C2CC2)CC1 [active = Z-AUC below -0.8 in all three lines] : Potency 5.258 µM (falling, partial curve)

For reference, 2 entries once more:

| structure | condition | Potency (µM) | curve |
|---|---|---|---|
| `CO[C@@H]1[C@@H](O)[C@H](O)[C@@H](n2c3c(Cl)cccc3c3c4c(c5c6cccc(Cl)c6[nH]c5c32)C(=O)NC4=O)O[C@@H]1CO` | active = Z-AUC below -0.8 in all three lines | 1.663 | falling, full curve |
| `O=C(CCCCCCC(=O)Nc1ccccc1)NO` | active = Z-AUC below -0.8 in all three lines | 5.899 | falling, full curve |

Source: PubChem BioAssay AID1963991 (NCATS, 2024).